This experiment concerns the target T1, S. cerevisiae GST-Acl4 (wild type) (S. cerevisiae) (UniProt Q03771).
T1 sequence: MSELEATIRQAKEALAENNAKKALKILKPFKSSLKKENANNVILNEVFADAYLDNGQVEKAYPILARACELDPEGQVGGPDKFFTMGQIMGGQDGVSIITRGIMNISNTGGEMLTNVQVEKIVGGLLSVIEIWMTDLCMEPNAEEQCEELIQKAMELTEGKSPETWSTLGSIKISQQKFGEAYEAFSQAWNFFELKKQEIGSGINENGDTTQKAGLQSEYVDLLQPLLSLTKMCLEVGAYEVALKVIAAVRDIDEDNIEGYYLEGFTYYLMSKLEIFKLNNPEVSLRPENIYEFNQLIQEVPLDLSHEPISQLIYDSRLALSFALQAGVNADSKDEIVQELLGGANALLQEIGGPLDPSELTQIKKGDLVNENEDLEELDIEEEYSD
Description: pull-down; GST-Acl4 (bait) coexpressed with SUMO-RpL4^ΔEXT in E. coli; cleared lysate on glutathione sepharose, 1 h 4 °C, 20 mM TRIS pH 8.0, 100 mM NaCl, 5 mM DTT; glutathione elution, Coomassie.

These are yes or no findings as the source states them, for the method shown. Binding seen in cells or lysates may run through a third protein. Binding calls can cover weak binding; strength is not graded here. Where a sequence is shown, tags or fusion partners need not be part of it.

“S. cerevisiae SUMO-RpL4^ΔEXT (domain or fragment)”: the binding entry is “binds”.

Values taken from paper PMC5296656.
